Test results published in PubChem BioAssay AID493014 (National Center for Advancing Translational Sciences (NCATS), 2011).
Some of the results follow. The main result of the screen is listed elsewhere. These columns were measured beside it and carry no call. Most of these compounds were active or inconclusive in the main read-out, so they are no random draw. Words in brackets tell the shape of the fitted curve; partial curves, single points and poor fits give uncertain potencies.

Experiment: qHTS Assay to Find Inhibitors of Chronic Active B-Cell Receptor Signaling
Settings: ABC-DLBCL IkBa-CBG/CBR reporter, luminescence ratio (green luciferase fused to IkBa over red control in TMD8 lymphoma cells), 4 h
Procedure, shortened: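 Cell line TMD8 (human ABC DLBCL), stably expressing tet-inducible CBG68-IkBa fusion and CBR; IMDM/0.5% FBS; cpd up to 46 uM; dox induction, 4 h, 37C/5% CO2; dual luminescence; green/red ratio; MG132 control.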

[1] = measured here: CBR red luminescence, cell number
[2] = measured here: IkBa-CBG green luminescence

CCC(C)(C)n1nnnc1C(c1ccc(O)c(OC)c1)N1CCc2ccccc2C1 (configuration not stated)
AC50 [1]: 7.94 µM [falling, partial curve]

CN1CCC(N(C)S(=O)(=O)c2ccc(NC(=O)COc3ccc(Br)cc3Cl)cc2)CC1
AC50 [1]: 29.1 µM [falling, single point]

CCCCN(C)CCNC(=O)c1cc2c(-c3ccccc3F)nn(C)c2s1
AC50 [1]: 17.8 µM [falling, single point]

Cc1cc(NC(=O)CSc2nnc(-c3ccc(Cl)s3)o2)no1
AC50 [1]: 10 µM [rising, partial curve]

CC(=O)Nc1ccc(S(=O)(=O)N2c3ccccc3C(C)=CC2(C)C)cc1
AC50 [1]: 7.94 µM [rising, partial curve, poor fit]
AC50 [2]: 4.47 µM [falling, full curve]

Cc1ccc(CNC(=O)c2c[nH]c3ccc(S(=O)(=O)Nc4ccc(C(C)C)cc4)cc3c2=O)cc1
AC50 [1]: 22.4 µM [falling, single point]

COc1cc(Cl)c(C)cc1NC(=O)CN1CCCCCC1
AC50 [1]: 20 µM [falling, partial curve]

Cc1ccc(/C=N/NC(=O)c2nnn(-c3nonc3N)c2C)o1
AC50 [1]: 0.562 µM [rising, full curve, poor fit]

CCCNc1nc(-c2ccccc2)c(C(=O)OCC)cc1C#N
AC50 [1]: 25.9 µM [rising, partial curve]
AC50 [2]: 16.4 µM [falling, partial curve]

COc1ccc(CCNC(=O)c2ccc(COc3ccccc3OC)o2)cc1
AC50 [1]: 11.2 µM [falling, partial curve]

CCC(Sc1nc2ccc(C)cc2[nH]1)C(=O)O (configuration not stated)
AC50 [1]: 2.06 µM [rising, full curve, poor fit]

COc1ccc2c(c1)c(=O)oc1cc(O)ccc12
AC50 [1]: 12.6 µM [rising, partial curve, poor fit]

C=CCN1C(=O)CSc2ccc(C(=O)NC3CCCCC3)cc21
AC50 [1]: 11.2 µM [falling, partial curve]

COc1cc(C(C(=O)NC(C)(C)C)N(C(=O)CNC(=O)c2cccs2)c2cccnc2)cc(OC)c1OC (configuration not stated)
AC50 [1]: 7.94 µM [rising, partial curve]

CCCc1nnc(NC(=O)C23CC4CC(CC(C4)C2)C3)s1
AC50 [1]: 14.1 µM [falling, partial curve, poor fit]

O=C(Nc1ccccc1)C1=C[C@H](c2csc3ccccc23)C[C@H](OCCCCO)O1
AC50 [1]: 20 µM [falling, partial curve, poor fit]

COc1ccc(C2NCCc3cc(OC)c(OC)cc32)cc1OC (configuration not stated)
AC50 [1]: 11.2 µM [rising, partial curve]

CCOC(=O)C1=C(c2ccccc2)OC(N)=C(C#N)C1c1ccc(Cl)s1 (configuration not stated)
AC50 [1]: 2.82 µM [falling, full curve, poor fit]

CCCC(NC(=O)CCl)c1ccccc1 (configuration not stated)
AC50 [1]: 8.2 µM [falling, partial curve, poor fit]

COc1ccc(C(c2c(C)n(C)n(-c3ccccc3)c2=O)c2c(C)n(C)n(-c3ccccc3)c2=O)cc1OC
AC50 [1]: 0.501 µM [falling, partial curve, poor fit]

Cc1ccc(N(Cc2cc(=O)[nH]c3ccccc23)C(=O)C(C)C)c(C)c1
AC50 [1]: 17.8 µM [falling, single point]

CCOC(=O)c1[nH]c2ccc(OC)cc2c1C
AC50 [1]: 3.16 µM [rising, full curve]

COc1ccc(CN(Cc2ccc(C(=O)O)cc2)C(=S)Nc2ccc(C)cc2)cc1OC
AC50 [1]: 20 µM [falling, single point]

COC(=O)c1[nH]c2cc(OC)ccc2c1NC(=O)CCN1CCN(c2ccccc2)CC1
AC50 [1]: 13 µM [rising, partial curve, poor fit]

COc1ccc(C(c2c(O)nc[nH]c2=O)c2c(O)nc[nH]c2=O)cc1
AC50 [1]: 3.55 µM [rising, partial curve, poor fit]

CC(C)(C)C1CCc2c(sc3c2C(=O)NC(c2ccco2)N3)C1 (configuration not stated)
AC50 [2]: 20.6 µM [rising, partial curve, poor fit]

CCC(C)N(C(=O)COC(=O)CSc1ccc(C)c(C)c1)C1CCS(=O)(=O)C1 (configuration not stated)
AC50 [1]: 0.00411 µM [rising, full curve, poor fit]

CC(C)c1ccc(N2C(=O)/C(=C/N(C)C)SC2=S)cc1
AC50 [1]: 7.08 µM [rising, partial curve]

COc1ccc(CN2CCCCC2C)cc1C (configuration not stated)
AC50 [1]: 3.26 µM [rising, partial curve, poor fit]

CCc1ccc2c(CN3CCc4ccccc43)cc(=O)oc2c1
AC50 [1]: 35.5 µM [rising, single point]
AC50 [2]: 22.4 µM [falling, single point]

Cc1cc(NC(=O)c2nn3cccnc3c2Cl)no1
AC50 [1]: 0.517 µM [rising, partial curve, poor fit]

c1ccc2c(c1)Cn1c-2nc2ccccc21
AC50 [1]: 29.1 µM [falling, single point]

CCC(C)OC(=O)C[N+](C)(C)CCOC1CC2CCC1(C)C2(C)C (configuration not stated)
AC50 [1]: 14.1 µM [falling, single point]

CCCC(=O)C1=C(O)C(C(=O)OC)C(C)(C)CC1=NCCc1ccc(OC)c(OC)c1 (configuration not stated)
AC50 [1]: 25.1 µM [rising, partial curve, poor fit]

COc1cc(/C=C2/C(=O)N(c3ccc(C(=O)O)cc3)N=C2C)cc(OC)c1O
AC50 [1]: 4.47 µM [falling, full curve]

Cc1[nH]c2ccc(OCc3ccccc3)cc2c1CCN1C(=O)OC(C)(C)C1(C)O (configuration not stated)
AC50 [1]: 0.116 µM [rising, single point]

CN(C(=O)c1cccc(Nc2ccc(-c3ccc4c(c3)OCCO4)nn2)c1)C1CCCCC1
AC50 [1]: 14.6 µM [falling, partial curve]

CCOC(=O)c1c(C)[nH]c(C)c1C(=O)CSc1nc2ccccc2n1CCC#N
AC50 [1]: 0.092 µM [rising, full curve, poor fit]

CC1=NNC(=O)C1CCC(=O)N/N=C(\C)c1ccc(Cl)cc1 (configuration not stated)
AC50 [1]: 5.62 µM [rising, single point]

Cc1ccc(-c2ccc(/C=N/NC(=O)c3ccccc3O)o2)cc1
AC50 [1]: 5.62 µM [falling, full curve]

Cc1nonc1C(=O)N/N=C/c1ccc(O)cc1O
AC50 [1]: 10 µM [falling, partial curve]

CC1CCCN(C(=S)Nc2ccc(F)cc2)C1 (configuration not stated)
AC50 [1]: 22.4 µM [rising, single point]

O=C(N[C@@H]1c2ccccc2CC[C@@H]1OCc1ccccc1)c1ccc(-c2ccccc2)cc1
AC50 [1]: 29.1 µM [rising, partial curve, poor fit]

CN1CCC(=C2c3ccccc3C=Cc3ccccc32)CC1
AC50 [1]: 5.8 µM [falling, partial curve]

COc1cccc(NC(=O)C(=O)c2cn(CC(=O)N3CCCC3)c3ccccc23)c1
AC50 [1]: 0.355 µM [falling, full curve, poor fit]

CC(=O)Oc1ccc(-c2ccc(C(=O)O)cc2)cc1
AC50 [1]: 20.6 µM [falling, partial curve]

COc1cc(NC(=O)c2cc(OC)c(OC)c(OC)c2)ccc1NC(=O)c1cccs1
AC50 [1]: 6.31 µM [rising, single point]

CC(C)(C)C(=O)COC(=O)c1cc2ccccc2cc1O
AC50 [1]: 29.1 µM [rising, single point]

Cc1ccccc1C(=O)N(CC(=O)Nc1sc(C)c(C)c1C(N)=O)C1CCCC1
AC50 [1]: 0.562 µM [falling, partial curve, poor fit]

Cn1c(NC(=O)c2ccc(Br)o2)cc(=O)n(C)c1=O
AC50 [1]: 1.46 µM [falling, partial curve, poor fit]

O=S(=O)(c1ccccc1)N1CCN(c2nc3ccccc3s2)CC1
AC50 [1]: 29.1 µM [rising, single point]

CC(=O)c1sc(-c2ccccc2)nc1C
AC50 [1]: 10 µM [rising, partial curve, poor fit]

COC(=O)/C(C#N)=C(/Nc1ccc(F)c(Cl)c1)C(F)(F)F
AC50 [1]: 0.224 µM [rising, full curve, poor fit]

OC1CCCN(c2c3c(nc4cc(-c5cccc(F)c5)nn24)CCCC3)C1 (configuration not stated)
AC50 [1]: 5.62 µM [falling, single point]

C(=N\Nc1ncnc2nc[nH]c12)/c1cccs1
AC50 [1]: 22.4 µM [falling, single point]

COc1ccc(F)cc1Cn1nc(C(=O)O)c2ccccc2c1=O
AC50 [1]: 5.01 µM [falling, full curve]

O=C(Nc1ccc(F)cc1)C(=O)C1C(=O)Nc2ccccc21 (configuration not stated)
AC50 [1]: 10 µM [falling, partial curve, poor fit]

COc1ccccc1N1CCN(C(=O)C2c3ccccc3Oc3ccccc32)CC1
AC50 [1]: 2.82 µM [rising, full curve]
AC50 [2]: 11.2 µM [falling, partial curve]

Cc1ccc2c(CC(=O)NCC3(N4CCOCC4)CCCCC3)coc2c1C
AC50 [1]: 20.6 µM [falling, partial curve, poor fit]

COC(=O)c1ccc(Cl)c(NC(=O)CSc2nnc(-c3ccncc3)o2)c1
AC50 [1]: 11.2 µM [falling, single point]

NS(=O)(=O)c1ccc(N=Nc2ccc(O)c3ncccc23)cc1
AC50 [1]: 7.08 µM [rising, partial curve]

O=C(CCc1ccccc1)Nc1nc2n(n1)C(c1ccccc1)CC(=O)N2 (configuration not stated)
AC50 [1]: 0.562 µM [falling, full curve, poor fit]

COc1ccccc1/C=N/NC(=O)c1cccc(NC(=O)c2ccccc2Cl)c1
AC50 [1]: 2.82 µM [falling, partial curve, poor fit]
